# Laboratory results from PubChem BioAssay AID504467 (National Center for Advancing Translational Sciences (NCATS), 2011).
# Screen size: about 330,000 compounds; about 7,700 (2.3%) were called active. Inconclusive means that the source gave no clear call. Such entries were picked first, then a sample of the others. The call rests on the fitted dose curve; in most records, active means well fitted inhibition curve with a large enough effect; inconclusive means small, poorly fitted or top-dose-only effect, or effect the other way; inactive means flat fitted curve, though single readings scatter. Where the call is inconclusive, the potency comes from a doubtful curve fit.
# Test: qHTS screen for small molecules that inhibit ELG1-dependent DNA repair in human embryonic kidney (HEK293T) cells expressing luciferase-tagged ELG1; further: nearly all actives have a fitted effect of over 55% in size
# Conditions: HEK293T ELG1-luciferase reporter, luminescence, 16 h, DNA damage induced by 5-fluorouridine; activity change, negative = inhibition: at 46.1 µM (top of the series)
# In short: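 Reporter activity after DNA damage by 5-fluorouridine is monitored. Compound-treated cells incubate 16 hr at 37 °C, then ONE-Glo is added for 30 min before luminescence reading.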
# On the % scale 0 is the no-effect control and ±100 the full control effect; potency means the concentration at half of the fitted maximal effect.
Compound,"activity change, negative = inhibition",Potency
COc1ccccc1NS(=O)(=O)c1cccc(C(=O)NC2CCN(Cc3ccccc3)CC2)c1,inactive: -2.06%,–
O=C(CN1CCN(S(=O)(=O)c2ccc(Cl)cc2)CC1)NCC1(N2CCOCC2)CCCCC1,inactive: 7.19%,–
CCOC(=O)CNC(=O)CSc1nnc(SCC(=O)NCC(=O)OCC)s1,inactive: -3.28%,–
CCn1c(SCC(=O)Nc2ccc(NC(=O)c3ccco3)c(OC)c2)nc2ccccc2c1=O,–,"inconclusive: 0.517 µM [activator, single point]"
COc1cc(C(=O)NCC2CCCO2)cc(Br)c1OCc1ccccc1 (stereo not given),–,"inconclusive: 29.1 µM [inhibitor, single point]"
COc1ccc(NC(=O)N2CCN(C(=O)c3ccco3)CC2)c(OC)c1,inactive: 5.04%,–
CCOC(=O)C1(Cc2cccc(OC)c2)CCN(Cc2cc(OC)ccc2OC)CC1,–,"inconclusive: 32.6 µM [inhibitor, partial curve, poor fit]"
COc1ccc(-c2c(NC(=O)c3ccco3)oc3c(C)cccc3c2=O)cc1OC,inactive: -2.6%,–
O=C(O)Cn1c(=S)sc2ccccc21,–,"inconclusive: 18.3 µM [inhibitor, partial curve, poor fit]"
Cc1ccc(N2CC(C(=O)N3CCC4(CC3)CC(=O)c3ccccc3O4)CC2=O)cc1 (stereo not given),–,"inconclusive: 16.4 µM [inhibitor, single point]"
Cc1nn(C)cc1S(=O)(=O)Nc1ncccn1,inactive: 1.51%,–
CC(C(=O)Nc1ccc(O)cc1C(=O)O)N1C(=O)/C(=C\c2cccs2)SC1=S (stereo not given),inactive: -3.5%,–
Cc1cccc(C(=O)NCC(=O)OCc2nnc(-c3ccccc3)o2)c1,–,"inconclusive: 8.2 µM [activator, partial curve]"
CC(C)C[C@]1(c2ccccc2)ON(c2ccccc2C(F)(F)F)C1=O,–,"inconclusive: 23.1 µM [inhibitor, partial curve, poor fit]"
CCOC(=O)CSC1=C(C#N)C(c2ccccc2Cl)C(C(=O)OC)C(=O)N1 (stereo not given),–,"inconclusive: 4.11 µM [activator, full curve, poor fit]"
CSc1nc2ccc(Nc3nc(N4CCOCC4)nc(N4CCOCC4)n3)cc2s1,–,active: 5.17 µM
CCCc1cc(=O)oc2cc(C)cc(OCC(=O)Nc3ccccn3)c12,inactive: 2.18%,–
Cc1nc(N)nc(COc2ccccc2)n1,–,"inconclusive: 18.3 µM [activator, single point]"
Cc1ccc2[nH]c(C(=O)NN=C3CCCCC3)c(-c3ccccc3)c2c1,–,"inconclusive: 23.1 µM [inhibitor, single point]"
COc1cc(-c2nc(S(=O)(=O)c3ccc(Cl)cc3)c(N3CCOCC3)o2)cc(OC)c1OC,–,"inconclusive: 1.46 µM [inhibitor, single point]"

# Record cards (already shown). Values in the order: activity change, negative = inhibition	Potency
# CCOC(=O)CNC(=O)CSc1nnc(SCC(=O)NCC(=O)OCC)s1 is entered as inactive: -3.28%	–
# COc1ccccc1NS(=O)(=O)c1cccc(C(=O)NC2CCN(Cc3ccccc3)CC2)c1 is entered as inactive: -2.06%	–
